The target in the experiment is BZR1-YFP (brassinazole-resistant 1 fused to yellow fluorescent protein) (Arabidopsis) (UniProt Q8S307). As to the kind of experiment: affinity purification with mass spectrometry; lysates of 35S::BZR1-YFP and 35S::GFP seedlings on anti-GFP agarose beads, 4°C, 4 hours; 1% Triton X-100, 150 mM NaCl, 50 mM tris-HCl pH 7.5, 5 mM EDTA; LC-MS/MS of the bound proteins.

By UniProt entry, the sequences of proteins in these tests, tags left out.
UniProt Q8S307: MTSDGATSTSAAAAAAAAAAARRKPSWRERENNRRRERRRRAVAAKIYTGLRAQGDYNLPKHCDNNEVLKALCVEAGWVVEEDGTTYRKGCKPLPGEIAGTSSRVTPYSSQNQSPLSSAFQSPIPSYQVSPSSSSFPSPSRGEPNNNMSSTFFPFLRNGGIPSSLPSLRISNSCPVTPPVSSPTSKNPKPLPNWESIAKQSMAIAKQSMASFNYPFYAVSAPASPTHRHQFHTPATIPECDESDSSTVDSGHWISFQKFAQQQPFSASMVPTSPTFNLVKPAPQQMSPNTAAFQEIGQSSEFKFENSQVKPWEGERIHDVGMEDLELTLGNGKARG

No constants are given. Whether binding was seen depends on the method and setting. In cells and extracts the contact can be indirect. Here binding means that the protein was enriched with, or labelled near, the bait; the list need not be complete.

B1: GRF4 (general regulatory factor 4), endogenous (protein, UniProt P46077 1-267)
chain: MAAPPASSSAREEFVYLAKLAEQAERYEEMVEFMEKVAEAVDKDELTVEERNLLSVAYKNVIGARRASWRIISSIEQKEESRGNDDHVTTIRDYRSKIESELSKICDGILKLLDTRLVPASANGDSKVFYLKMKGDYHRYLAEFKTGQERKDAAEHTLTAYKAAQDIANAELAPTHPIRLGLALNFSVFYYEILNSPDRACNLAKQAFDEAIAELDTLGEESYKDSTLIMQLLRDNLTLWTSDMQDESPEEIKEAAAPKPAEEQKEI
Regarding B1, the binding result is on record as “binds”.

(Values after paper PMC9812374.)
